# Measurements reported in PMC5996148.
# Where “and” joins values, the source holds several entries; their conditions need not be identical. Equal values may be shown once. This is one part of the list. For some assays here: The source does not settle which construct or isoform was used.
# Assays:
# Assay in all cases: protein microarray (ProtoArray v5.0), streptavidin-Alexa Fluor 647
# Conditions in all cases: 3'-biotin; 20 mM Tris (pH 7.5), 5 mM MgCl2, 100 mM KCl, 0.1% Tween-20, A/T-rich and random oligonucleotide blockers; temperature not stated; high values mean tight binding
# [1] = system: RAB4A (human)
# [2] = system: RAB7B (human)
# [3] = target: T1, RAB9A (UniProt P51151)
# T1 sequence: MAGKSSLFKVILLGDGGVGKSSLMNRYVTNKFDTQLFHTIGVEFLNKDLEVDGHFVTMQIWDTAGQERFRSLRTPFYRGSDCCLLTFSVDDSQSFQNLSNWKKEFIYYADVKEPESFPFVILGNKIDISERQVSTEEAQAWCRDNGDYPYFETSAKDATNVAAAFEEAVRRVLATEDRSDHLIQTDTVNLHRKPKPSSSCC
# [4] = system: RABEP2 (human)
# [5] = system: RABEPK (human)
# [6] = system: RABL2B (human)
# [7] = system: RABL4 (human)
# [8] = system: RABL5 (human)
# [9] = system: RAD54B (human)
# [10] = system: RAG1AP1 (human)
# [11] = system: RALA (human)
# [12] = system: RAMP3 (human)
# [13] = system: RANGAP1 (human)
# [14] = system: RAP1A (human)
# [15] = system: RAP1B (human)
# [16] = system: RAP1GDS1 (human)
# [17] = system: RAP2B (human)
# [18] = system: RASGRP3 (human)
# [19] = system: RASSF5 (human)
# [20] = target: T2, RBED1 (UniProt Q96FG2)
# T2 sequence: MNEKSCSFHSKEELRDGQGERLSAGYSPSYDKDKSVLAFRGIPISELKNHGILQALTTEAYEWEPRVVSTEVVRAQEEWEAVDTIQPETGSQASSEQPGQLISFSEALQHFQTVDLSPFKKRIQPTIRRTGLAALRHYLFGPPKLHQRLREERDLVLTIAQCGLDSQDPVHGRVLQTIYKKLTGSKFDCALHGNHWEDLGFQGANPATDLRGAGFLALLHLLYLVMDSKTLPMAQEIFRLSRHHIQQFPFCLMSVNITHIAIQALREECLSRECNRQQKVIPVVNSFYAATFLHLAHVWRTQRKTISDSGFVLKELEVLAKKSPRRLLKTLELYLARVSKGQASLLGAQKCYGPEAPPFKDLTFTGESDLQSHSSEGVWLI
sequence,measurement,setting,value
GGGAGGCTGAGGCAGG [G4-1 biotinylated (PQS2)],binding signal,[1],-0.339 z-score
same,binding signal,[2],-0.324 z-score and -0.306 z-score
same,binding signal,[3],-0.35 z-score
same,binding signal,[4],-0.331 z-score
same,binding signal,[5],-0.289 z-score
same,binding signal,[6],-0.266 z-score and -0.328 z-score
same,binding signal,[7],-0.305 z-score
same,binding signal,[8],-0.335 z-score and -0.35 z-score
same,binding signal,[9],-0.326 z-score
same,binding signal,[10],-0.302 z-score
same,binding signal,[11],-0.277 z-score
same,binding signal,[12],-0.275 z-score
same,binding signal,[13],-0.332 z-score
same,binding signal,[14],-0.308 z-score
same,binding signal,[15],-0.305 z-score
same,binding signal,[16],-0.355 z-score and -0.371 z-score and -0.361 z-score
same,binding signal,[17],-0.307 z-score
same,binding signal,[18],-0.312 z-score
same,binding signal,[19],-0.337 z-score
same,binding signal,[20],-0.321 z-score

# 2 records drawn at random from the list so far:
sequence,measurement,setting,value
GGGAGGCTGAGGCAGG [G4-1 biotinylated (PQS2)],binding signal,[12],-0.275 z-score
same,binding signal,[18],-0.312 z-score
